{"source": "PubChem BioAssay AID602196 (INSERM, 2012)", "screen": "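Modifiers of cisplatin sensitivity in A549 cells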", "system": "human A549 lung cancer cells", "knock-down reagent": "siRNA pair against human genes", "timing": "48 h transfection before cisplatin; time from cisplatin to read-out not stated", "conditions": "cisplatin at a dose killing half of control-siRNA cells; exact dose and duration not given", "detection": "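Cisplatin cell death as a shift from the 50% death seen with control siRNA; siRNAs toxic or growth-blocking alone scored 0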", "reading the numbers": "two-siRNA summed score (-2 to +2): higher = both siRNAs protect from cisplatin killing; -2 means both sensitise; mean protection from cisplatin (shift in death): higher = protection from cisplatin killing", "rule for the call": "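siRNAs harmful alone (LDH or WST-1) get 0; others get +1 for less and -1 for more cisplatin killing; genes are active when the two siRNAs give the same sign, summing to ±2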", "meaning of the calls": "active = both siRNAs shift cisplatin killing the same way; inactive = no consistent shift, or siRNA harmful alone", "note": "Here is one part, drawn at random, of about 23,000 deposited reagents. Over the whole deposit, 455 (2%) got an active call. 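Active includes both protection and sensitisation; some change values fall well beyond the stated -50 to +50 range.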 Not all columns of the deposit are shown. No sequences are given here. The record does not give: the amount of reagent."}
{"target":"LOC402336","two-siRNA summed score (-2 to +2)":1,"mean protection from cisplatin (shift in death) (%)":16.3,"activity call":"inactive"}
{"target":"HOXB1 (homeobox B1)","two-siRNA summed score (-2 to +2)":0,"mean protection from cisplatin (shift in death) (%)":-9.5,"activity call":"inactive"}
{"target":"NPEPPS (aminopeptidase puromycin sensitive)","two-siRNA summed score (-2 to +2)":-2,"mean protection from cisplatin (shift in death) (%)":-20.2,"activity call":"active"}
{"target":"CNPY2 (canopy FGF signaling regulator 2)","two-siRNA summed score (-2 to +2)":0,"mean protection from cisplatin (shift in death) (%)":-2.7,"activity call":"inactive"}
{"target":"POMK (protein O-mannose kinase)","two-siRNA summed score (-2 to +2)":0,"mean protection from cisplatin (shift in death) (%)":4.2,"activity call":"inactive"}
{"target":"EGR3 (early growth response 3)","two-siRNA summed score (-2 to +2)":2,"mean protection from cisplatin (shift in death) (%)":23.6,"activity call":"active"}
{"target":"IMPDH1 (inosine monophosphate dehydrogenase 1)","two-siRNA summed score (-2 to +2)":0,"mean protection from cisplatin (shift in death) (%)":-13,"activity call":"inactive"}
{"target":"AMZ1 (archaelysin family metallopeptidase 1)","two-siRNA summed score (-2 to +2)":-1,"mean protection from cisplatin (shift in death) (%)":1,"activity call":"inactive"}
{"target":"DKFZP564D166","two-siRNA summed score (-2 to +2)":0,"mean protection from cisplatin (shift in death) (%)":11.5,"activity call":"inactive"}
{"target":"TNFSF18 (TNF superfamily member 18)","two-siRNA summed score (-2 to +2)":0,"mean protection from cisplatin (shift in death) (%)":-2.2,"activity call":"inactive"}
{"target":"SURF4 (surfeit 4)","two-siRNA summed score (-2 to +2)":1,"mean protection from cisplatin (shift in death) (%)":15.7,"activity call":"inactive"}
{"target":"PALM (paralemmin)","two-siRNA summed score (-2 to +2)":0,"mean protection from cisplatin (shift in death) (%)":1.2,"activity call":"inactive"}
{"target":"ITPA (inosine triphosphatase)","two-siRNA summed score (-2 to +2)":1,"mean protection from cisplatin (shift in death) (%)":10.6,"activity call":"inactive"}
{"target":"HSPE1 (heat shock protein family E (Hsp10) member 1)","two-siRNA summed score (-2 to +2)":-1,"mean protection from cisplatin (shift in death) (%)":-12,"activity call":"inactive"}
{"target":"ITCH (itchy E3 ubiquitin protein ligase)","two-siRNA summed score (-2 to +2)":1,"mean protection from cisplatin (shift in death) (%)":26.7,"activity call":"inactive"}
{"target":"USO1 (USO1 vesicle transport factor)","two-siRNA summed score (-2 to +2)":0,"mean protection from cisplatin (shift in death) (%)":6.8,"activity call":"inactive"}
{"target":"KLF6 (KLF transcription factor 6)","two-siRNA summed score (-2 to +2)":0,"mean protection from cisplatin (shift in death) (%)":22.5,"activity call":"inactive"}
{"target":"HSALR1 (HSP90AB1 associated lncRNA 1)","two-siRNA summed score (-2 to +2)":0,"mean protection from cisplatin (shift in death) (%)":7.3,"activity call":"inactive"}
{"target":"RAB23 (RAB23, member RAS oncogene family)","two-siRNA summed score (-2 to +2)":0,"mean protection from cisplatin (shift in death) (%)":-28.3,"activity call":"inactive"}
{"target":"LINC00523 (long independently transcribed non-coding RNA 523)","two-siRNA summed score (-2 to +2)":0,"mean protection from cisplatin (shift in death) (%)":1.3,"activity call":"inactive"}
{"target":"YBX3 (Y-box binding protein 3)","two-siRNA summed score (-2 to +2)":0,"mean protection from cisplatin (shift in death) (%)":18.6,"activity call":"inactive"}
{"target":"TFF3 (trefoil factor 3)","two-siRNA summed score (-2 to +2)":0,"mean protection from cisplatin (shift in death) (%)":3.9,"activity call":"inactive"}
{"target":"HSD17B2 (hydroxysteroid 17-beta dehydrogenase 2)","two-siRNA summed score (-2 to +2)":0,"mean protection from cisplatin (shift in death) (%)":-5.9,"activity call":"inactive"}
{"target":"CCDC188 (coiled-coil domain containing 188)","two-siRNA summed score (-2 to +2)":0,"mean protection from cisplatin (shift in death) (%)":-2.9,"activity call":"inactive"}
{"target":"CELA3A (chymotrypsin like elastase 3A)","two-siRNA summed score (-2 to +2)":-1,"mean protection from cisplatin (shift in death) (%)":8.4,"activity call":"inactive"}
{"target":"LOC401865","two-siRNA summed score (-2 to +2)":0,"mean protection from cisplatin (shift in death) (%)":17.3,"activity call":"inactive"}
{"target":"SLC5A2","two-siRNA summed score (-2 to +2)":1,"mean protection from cisplatin (shift in death) (%)":22,"activity call":"inactive"}
{"target":"LCN2 (lipocalin 2)","two-siRNA summed score (-2 to +2)":1,"mean protection from cisplatin (shift in death) (%)":13.4,"activity call":"inactive"}
{"target":"LOC139431","two-siRNA summed score (-2 to +2)":-1,"mean protection from cisplatin (shift in death) (%)":-2,"activity call":"inactive"}
{"target":"TSSK2 (testis specific serine kinase 2)","two-siRNA summed score (-2 to +2)":0,"mean protection from cisplatin (shift in death) (%)":1.7,"activity call":"inactive"}
{"target":"PARD6G (par-6 family cell polarity regulator gamma)","two-siRNA summed score (-2 to +2)":1,"mean protection from cisplatin (shift in death) (%)":15.3,"activity call":"inactive"}

2 entries already listed, sorted by “mean protection from cisplatin (shift in death) (%)”, ascending.
{"target":"HSPE1 (heat shock protein family E (Hsp10) member 1)","two-siRNA summed score (-2 to +2)":-1,"mean protection from cisplatin (shift in death) (%)":-12,"activity call":"inactive"}
{"target":"ITPA (inosine triphosphatase)","two-siRNA summed score (-2 to +2)":1,"mean protection from cisplatin (shift in death) (%)":10.6,"activity call":"inactive"}
